The values that follow come from the supplement of paper PMC12819154, “High-throughput peptide-centric local stability assay extends protein–ligand identification to membrane proteins, tissues and bacteria” (Nature Structural & Molecular Biology, 2025).

Amino acid sequences for entries named in this document (tags omitted). A change or cut given only in a name is not applied to a line headed by its entry.
UniProt P31786: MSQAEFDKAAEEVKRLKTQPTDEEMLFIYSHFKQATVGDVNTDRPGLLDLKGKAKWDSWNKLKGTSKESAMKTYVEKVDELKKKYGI
UniProt P26041, whole entry: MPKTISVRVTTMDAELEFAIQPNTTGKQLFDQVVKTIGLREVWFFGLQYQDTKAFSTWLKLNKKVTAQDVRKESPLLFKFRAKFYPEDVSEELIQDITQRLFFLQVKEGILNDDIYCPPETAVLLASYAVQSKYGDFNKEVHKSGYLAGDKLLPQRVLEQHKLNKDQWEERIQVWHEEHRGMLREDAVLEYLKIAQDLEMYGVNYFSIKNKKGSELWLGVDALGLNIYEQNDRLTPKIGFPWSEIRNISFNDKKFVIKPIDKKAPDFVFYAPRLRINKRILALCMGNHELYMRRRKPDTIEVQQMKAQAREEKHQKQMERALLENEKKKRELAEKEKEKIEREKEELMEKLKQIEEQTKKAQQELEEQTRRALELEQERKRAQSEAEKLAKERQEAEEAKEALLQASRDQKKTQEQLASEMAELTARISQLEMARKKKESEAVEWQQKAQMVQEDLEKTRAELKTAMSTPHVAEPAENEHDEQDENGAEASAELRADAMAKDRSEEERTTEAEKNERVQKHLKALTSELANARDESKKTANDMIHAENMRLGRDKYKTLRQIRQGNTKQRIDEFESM
UniProt P26883, whole entry: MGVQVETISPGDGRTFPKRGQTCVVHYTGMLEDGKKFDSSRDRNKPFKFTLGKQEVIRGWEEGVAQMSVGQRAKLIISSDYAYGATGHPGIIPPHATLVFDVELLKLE
UniProt P23906: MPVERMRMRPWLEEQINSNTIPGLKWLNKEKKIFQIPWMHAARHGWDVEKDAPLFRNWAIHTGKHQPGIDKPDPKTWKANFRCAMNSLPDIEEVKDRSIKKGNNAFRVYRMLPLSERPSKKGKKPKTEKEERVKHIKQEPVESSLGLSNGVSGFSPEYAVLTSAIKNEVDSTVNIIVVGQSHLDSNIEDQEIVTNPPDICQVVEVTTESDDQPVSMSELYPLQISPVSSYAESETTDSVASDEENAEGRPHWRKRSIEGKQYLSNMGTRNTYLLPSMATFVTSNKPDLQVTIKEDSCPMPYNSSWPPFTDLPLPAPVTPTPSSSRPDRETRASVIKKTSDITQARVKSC
UniProt P26928: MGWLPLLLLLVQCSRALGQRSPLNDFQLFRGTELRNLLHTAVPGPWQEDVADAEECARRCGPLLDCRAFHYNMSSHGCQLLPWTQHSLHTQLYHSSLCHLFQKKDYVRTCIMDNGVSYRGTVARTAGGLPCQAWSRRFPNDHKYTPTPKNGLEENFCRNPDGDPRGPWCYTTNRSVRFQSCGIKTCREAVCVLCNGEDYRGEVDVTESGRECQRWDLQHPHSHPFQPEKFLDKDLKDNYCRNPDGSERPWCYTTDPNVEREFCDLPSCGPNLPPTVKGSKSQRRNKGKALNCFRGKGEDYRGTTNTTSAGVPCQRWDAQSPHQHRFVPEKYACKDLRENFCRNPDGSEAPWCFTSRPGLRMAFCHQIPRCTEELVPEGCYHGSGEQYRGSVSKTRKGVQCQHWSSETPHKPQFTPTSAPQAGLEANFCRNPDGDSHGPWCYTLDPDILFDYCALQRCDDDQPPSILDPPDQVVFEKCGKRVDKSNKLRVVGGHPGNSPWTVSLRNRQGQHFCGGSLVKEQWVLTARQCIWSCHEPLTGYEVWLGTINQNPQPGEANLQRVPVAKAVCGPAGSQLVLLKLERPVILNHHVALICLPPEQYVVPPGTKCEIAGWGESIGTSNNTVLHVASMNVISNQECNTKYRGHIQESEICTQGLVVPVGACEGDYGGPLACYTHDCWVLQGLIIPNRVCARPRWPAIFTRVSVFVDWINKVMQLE
UniProt P28828, whole entry: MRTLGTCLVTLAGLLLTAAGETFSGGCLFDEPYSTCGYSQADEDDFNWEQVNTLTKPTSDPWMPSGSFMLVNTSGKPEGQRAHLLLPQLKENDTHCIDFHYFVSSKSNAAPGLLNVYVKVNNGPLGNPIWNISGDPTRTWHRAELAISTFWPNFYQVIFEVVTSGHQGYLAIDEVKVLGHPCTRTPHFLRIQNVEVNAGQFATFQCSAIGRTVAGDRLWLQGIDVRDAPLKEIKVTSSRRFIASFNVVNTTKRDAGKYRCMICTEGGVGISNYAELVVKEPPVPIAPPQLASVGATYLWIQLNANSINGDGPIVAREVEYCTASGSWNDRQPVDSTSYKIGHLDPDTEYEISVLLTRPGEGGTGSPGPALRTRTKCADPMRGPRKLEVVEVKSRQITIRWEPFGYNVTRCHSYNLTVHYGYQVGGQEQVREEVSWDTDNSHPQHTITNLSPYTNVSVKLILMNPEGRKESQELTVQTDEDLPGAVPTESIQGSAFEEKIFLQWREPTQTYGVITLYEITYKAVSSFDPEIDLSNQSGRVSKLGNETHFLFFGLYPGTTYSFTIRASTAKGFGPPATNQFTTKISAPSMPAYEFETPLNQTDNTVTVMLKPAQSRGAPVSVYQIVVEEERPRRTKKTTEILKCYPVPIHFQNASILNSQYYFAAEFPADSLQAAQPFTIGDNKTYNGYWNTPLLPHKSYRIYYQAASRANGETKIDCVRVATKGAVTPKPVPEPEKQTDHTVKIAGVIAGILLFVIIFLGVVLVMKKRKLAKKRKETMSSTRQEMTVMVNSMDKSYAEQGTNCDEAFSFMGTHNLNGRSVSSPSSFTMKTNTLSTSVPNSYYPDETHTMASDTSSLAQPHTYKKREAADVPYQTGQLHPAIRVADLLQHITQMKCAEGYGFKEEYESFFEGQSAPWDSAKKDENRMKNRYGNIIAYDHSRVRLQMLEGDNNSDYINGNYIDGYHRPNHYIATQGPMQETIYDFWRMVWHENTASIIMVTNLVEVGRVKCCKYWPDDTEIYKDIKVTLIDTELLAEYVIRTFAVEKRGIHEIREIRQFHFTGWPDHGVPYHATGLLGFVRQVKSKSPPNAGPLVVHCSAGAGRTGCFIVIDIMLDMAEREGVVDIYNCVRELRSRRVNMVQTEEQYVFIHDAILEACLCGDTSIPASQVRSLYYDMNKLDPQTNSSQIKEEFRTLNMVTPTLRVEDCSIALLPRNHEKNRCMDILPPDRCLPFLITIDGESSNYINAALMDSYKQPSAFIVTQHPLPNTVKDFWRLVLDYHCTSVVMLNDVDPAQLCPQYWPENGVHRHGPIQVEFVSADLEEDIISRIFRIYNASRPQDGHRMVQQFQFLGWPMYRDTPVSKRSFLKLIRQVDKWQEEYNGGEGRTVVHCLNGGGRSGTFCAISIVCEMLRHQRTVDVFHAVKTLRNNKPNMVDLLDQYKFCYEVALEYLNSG
UniProt P16879: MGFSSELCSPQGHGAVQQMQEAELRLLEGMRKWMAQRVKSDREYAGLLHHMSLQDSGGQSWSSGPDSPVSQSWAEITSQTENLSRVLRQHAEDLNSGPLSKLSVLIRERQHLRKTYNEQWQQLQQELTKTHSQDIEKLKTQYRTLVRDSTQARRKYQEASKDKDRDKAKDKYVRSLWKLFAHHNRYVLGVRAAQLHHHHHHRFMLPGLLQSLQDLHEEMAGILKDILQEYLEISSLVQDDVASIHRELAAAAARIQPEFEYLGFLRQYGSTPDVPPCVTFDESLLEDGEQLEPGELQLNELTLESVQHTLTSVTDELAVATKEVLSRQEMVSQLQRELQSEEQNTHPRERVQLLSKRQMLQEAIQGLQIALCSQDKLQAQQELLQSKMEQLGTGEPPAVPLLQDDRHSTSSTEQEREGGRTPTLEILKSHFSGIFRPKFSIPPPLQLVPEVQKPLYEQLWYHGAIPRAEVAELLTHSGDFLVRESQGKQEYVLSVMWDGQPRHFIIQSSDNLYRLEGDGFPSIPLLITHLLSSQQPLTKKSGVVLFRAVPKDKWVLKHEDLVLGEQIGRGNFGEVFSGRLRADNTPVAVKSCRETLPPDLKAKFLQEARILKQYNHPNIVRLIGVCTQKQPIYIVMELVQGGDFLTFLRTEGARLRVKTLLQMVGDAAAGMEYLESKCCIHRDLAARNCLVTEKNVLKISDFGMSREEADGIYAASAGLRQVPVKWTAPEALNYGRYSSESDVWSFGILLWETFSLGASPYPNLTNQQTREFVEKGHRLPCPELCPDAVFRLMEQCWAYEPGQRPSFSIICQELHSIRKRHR
UniProt P17257: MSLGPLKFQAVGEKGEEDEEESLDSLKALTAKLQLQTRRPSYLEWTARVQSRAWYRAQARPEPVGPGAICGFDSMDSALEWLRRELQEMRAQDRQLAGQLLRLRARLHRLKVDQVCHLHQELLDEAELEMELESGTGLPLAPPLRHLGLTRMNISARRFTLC
UniProt P26369, whole entry: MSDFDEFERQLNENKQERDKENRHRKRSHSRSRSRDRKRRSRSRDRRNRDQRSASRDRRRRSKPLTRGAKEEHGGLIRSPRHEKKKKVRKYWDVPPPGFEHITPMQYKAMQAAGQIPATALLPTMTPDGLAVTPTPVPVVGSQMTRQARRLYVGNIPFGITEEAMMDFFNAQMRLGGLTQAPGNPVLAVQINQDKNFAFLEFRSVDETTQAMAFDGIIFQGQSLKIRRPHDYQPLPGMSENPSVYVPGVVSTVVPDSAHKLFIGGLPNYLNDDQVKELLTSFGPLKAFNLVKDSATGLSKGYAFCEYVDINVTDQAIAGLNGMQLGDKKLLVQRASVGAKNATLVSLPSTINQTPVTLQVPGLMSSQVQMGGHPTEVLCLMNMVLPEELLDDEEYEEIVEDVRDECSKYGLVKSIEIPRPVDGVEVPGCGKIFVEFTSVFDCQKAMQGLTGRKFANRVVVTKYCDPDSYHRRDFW
UniProt P20852: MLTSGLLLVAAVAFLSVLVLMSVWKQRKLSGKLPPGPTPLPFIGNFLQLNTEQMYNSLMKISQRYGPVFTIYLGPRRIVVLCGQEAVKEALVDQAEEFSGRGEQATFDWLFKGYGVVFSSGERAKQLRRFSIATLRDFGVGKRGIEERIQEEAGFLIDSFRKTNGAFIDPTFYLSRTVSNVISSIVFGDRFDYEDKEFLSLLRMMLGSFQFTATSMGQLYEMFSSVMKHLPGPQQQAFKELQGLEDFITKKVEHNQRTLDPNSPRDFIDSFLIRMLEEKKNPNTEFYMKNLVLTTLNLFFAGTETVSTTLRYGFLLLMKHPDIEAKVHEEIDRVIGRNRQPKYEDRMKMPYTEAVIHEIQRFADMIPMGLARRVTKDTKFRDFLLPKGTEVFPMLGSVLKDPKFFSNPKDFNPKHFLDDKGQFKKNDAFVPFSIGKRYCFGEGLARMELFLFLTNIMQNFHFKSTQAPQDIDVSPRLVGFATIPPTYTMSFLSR
UniProt P35288: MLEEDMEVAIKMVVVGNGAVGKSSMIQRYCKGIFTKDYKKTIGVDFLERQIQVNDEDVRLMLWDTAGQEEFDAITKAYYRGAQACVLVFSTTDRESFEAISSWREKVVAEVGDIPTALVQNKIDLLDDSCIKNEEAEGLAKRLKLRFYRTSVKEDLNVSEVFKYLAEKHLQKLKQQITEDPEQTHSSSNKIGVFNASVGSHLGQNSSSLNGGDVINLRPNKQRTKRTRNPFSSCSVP
UniProt P28740: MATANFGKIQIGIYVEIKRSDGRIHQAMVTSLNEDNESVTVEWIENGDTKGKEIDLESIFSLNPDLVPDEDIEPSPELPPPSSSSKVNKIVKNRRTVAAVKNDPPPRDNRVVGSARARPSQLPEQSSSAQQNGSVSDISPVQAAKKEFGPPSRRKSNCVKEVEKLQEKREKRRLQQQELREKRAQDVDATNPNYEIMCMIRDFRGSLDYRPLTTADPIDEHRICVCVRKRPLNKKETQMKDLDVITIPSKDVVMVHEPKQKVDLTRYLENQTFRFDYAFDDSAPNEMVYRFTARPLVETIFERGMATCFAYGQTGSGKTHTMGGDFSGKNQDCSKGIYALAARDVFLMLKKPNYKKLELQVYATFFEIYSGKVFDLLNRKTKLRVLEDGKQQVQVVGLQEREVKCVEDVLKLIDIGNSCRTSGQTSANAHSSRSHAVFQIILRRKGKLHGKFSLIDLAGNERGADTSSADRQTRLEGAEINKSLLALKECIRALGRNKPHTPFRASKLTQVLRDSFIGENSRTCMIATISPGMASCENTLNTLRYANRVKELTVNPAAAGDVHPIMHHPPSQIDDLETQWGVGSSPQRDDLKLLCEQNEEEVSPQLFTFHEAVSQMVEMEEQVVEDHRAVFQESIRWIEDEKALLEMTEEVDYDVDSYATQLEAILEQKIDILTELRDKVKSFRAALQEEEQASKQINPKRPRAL
UniProt P18242: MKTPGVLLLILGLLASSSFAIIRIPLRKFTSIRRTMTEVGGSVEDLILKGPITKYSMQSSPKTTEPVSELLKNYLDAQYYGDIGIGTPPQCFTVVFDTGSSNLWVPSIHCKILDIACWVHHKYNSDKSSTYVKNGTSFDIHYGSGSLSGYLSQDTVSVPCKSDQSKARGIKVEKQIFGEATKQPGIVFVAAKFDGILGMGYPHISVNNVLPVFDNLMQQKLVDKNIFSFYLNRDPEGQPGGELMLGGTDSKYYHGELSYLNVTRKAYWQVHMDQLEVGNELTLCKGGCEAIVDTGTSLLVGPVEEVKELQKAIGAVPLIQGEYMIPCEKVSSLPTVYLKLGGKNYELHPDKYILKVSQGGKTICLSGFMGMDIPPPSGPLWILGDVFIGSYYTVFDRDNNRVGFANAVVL

This is one part of the list. Most values lie at the level of the controls, where differences are scatter.

Compound in this assay: CN[C@@H]1C[C@H]2O[C@@](C)([C@@H]1OC)n1c3ccccc3c3c4c(c5c6ccccc6n2c5c31)C(=O)NC4 [staurosporine]
Put plainly: log2 fold change of tryptic peptide abundance, ligand vs vehicle (limited proteolysis) (log2 ratio); higher = more trypsin-susceptible (destabilized). The settings on record: ligand concentration: 20 uM; sample: mouse liver crude lysate; replicate design: treated separately.
Turning to “UniProt P25119 (peptide sequence: VMAEAQGFQEAR, peptide start residue: 353)”, the log2 fold change is -0.406.
Under “UniProt P31786 (peptide sequence: WDSWNKLKGTSK, peptide start residue: 56)” stands -0.468.
Under “UniProt P26041 (peptide sequence: AQSEAEKLAK, peptide start residue: 382)” stands -0.166; under “UniProt P34927 (peptide sequence: TKDYQDFQHLDNDNDHHQLR, peptide start residue: 2)”, -0.0775; under “UniProt P35235 (peptide sequence: FDSLTDLVEHYKK, peptide start residue: 187)”, 0.484.
Under “UniProt P23949 (peptide sequence: SFSENGER, peptide start residue: 125)” stands -0.397; under “UniProt P30993 (peptide sequence: TFTPSTTDTSTR, peptide start residue: 335)”, -0.149.
With “UniProt P24527 (peptide sequence: TQHLHLR, peptide start residue: 19)”, the log2 fold change was -0.61.
The result for “UniProt P17012 (peptide sequence: HFSHAGALFTHK, peptide start residue: 490)” reads 0.366.
Under “UniProt P26883 (peptide sequence: RGQTCVVHYTGMLEDGKK, peptide start residue: 19)” stands -0.113; under “UniProt P16332 (peptide sequence: ADTLDLPEELPGVKPFTR, peptide start residue: 74)”, -0.257.
The result for “UniProt P17918 (peptide sequence: MPSGEFAR, peptide start residue: 139)” reads 0.331; that for “UniProt P35283 (peptide sequence: FNSITSAYYR, peptide start residue: 103)”, 0.122; that for “UniProt P28230 (peptide sequence: RSPGTGAGLAEK, peptide start residue: 265)”, -0.193.
Take “UniProt P16056 (peptide sequence: WMALESLQTQK, peptide start residue: 1247)”: the log2 fold change was -0.323.
Take “UniProt P23906 (peptide sequence: IFQIPWMHAAR, peptide start residue: 33)”: the log2 fold change is -0.142.
The result for “UniProt P25425 (peptide sequence: TSIETNIR, peptide start residue: 387)” reads -0.0817.
Under “UniProt P30558 (peptide sequence: MDTCSSHLNNSIYKK, peptide start residue: 413)” stands -0.186; under “UniProt P30285 (peptide sequence: VTLVFEHIDQDLR, peptide start residue: 89)”, 0.387; under “UniProt P26928 (peptide sequence: WDAQSPHQHR, peptide start residue: 316)”, -0.375.
The result for “UniProt P16054 (peptide sequence: SAPTSPCDQELK, peptide start residue: 346)” reads -0.275; that for “UniProt P23591 (peptide sequence: MIDVQNR, peptide start residue: 149)”, -0.442.
As for “UniProt P28828 (peptide sequence: EAADVPYQTGQLHPAIR, peptide start residue: 865)”, the log2 fold change worked out at 0.231.
In the case of “UniProt P16879 (peptide sequence: SHFSGIFRPK, peptide start residue: 429)”, the log2 fold change is -0.338.
Consider “UniProt P29037 (peptide sequence: TTALIFSSGK, peptide start residue: 186)”, for which the log2 fold change is -0.0668.
Under “UniProt P17257 (peptide sequence: QLAGQLLR, peptide start residue: 95)” stands -0.106; under “UniProt P28656 (peptide sequence: YAVLYQPLFDKR, peptide start residue: 106)”, -0.161.
Regarding “UniProt P26369 (peptide sequence: EEHGGLIR, peptide start residue: 71)”, the log2 fold change was -0.175.
The result for “UniProt P20852 (peptide sequence: YGPVFTIYLGPRR, peptide start residue: 65)” reads 0.259; that for “UniProt P17095 (peptide sequence: EPSEVPTPK, peptide start residue: 47)”, 0.0957; that for “UniProt P22366 (peptide sequence: ELETRPDPTR, peptide start residue: 63)”, -0.271.
Under “UniProt P28650 (peptide sequence: ASNDRPPGTGGVK, peptide start residue: 6)” stands 0.245; under “UniProt P23953 (peptide sequence: AISESGVVINTNVGKK, peptide start residue: 243)”, -0.34; under “UniProt P35288 (peptide sequence: QIQVNDEDVR, peptide start residue: 50)”, 0.32.
Under “UniProt P28740 (peptide sequence: FSLIDLAGNER, peptide start residue: 452)” stands 0.143; under “UniProt P18242 (peptide sequence: YSMQSSPK, peptide start residue: 55)”, 0.138; under “UniProt P19096 (peptide sequence: SSCTIIPLMK, peptide start residue: 777)”, -0.526.
For “UniProt P16330 (peptide sequence: TAWRLDCAQLKEK, peptide start residue: 151)”, the log2 fold change was -0.579.
The result for “UniProt P26638 (peptide sequence: VLDLDLFRVDK, peptide start residue: 2)” reads 0.272.
